Measurements: article PMC7036253
No constants are given. Whether binding was seen depends on the method and setting. In cells and extracts the contact can be indirect. Some binding calls cover weakened binding; strength is not graded here.

Chains of the proteins cited; added tags and fusions are not shown.
UniProt P40763: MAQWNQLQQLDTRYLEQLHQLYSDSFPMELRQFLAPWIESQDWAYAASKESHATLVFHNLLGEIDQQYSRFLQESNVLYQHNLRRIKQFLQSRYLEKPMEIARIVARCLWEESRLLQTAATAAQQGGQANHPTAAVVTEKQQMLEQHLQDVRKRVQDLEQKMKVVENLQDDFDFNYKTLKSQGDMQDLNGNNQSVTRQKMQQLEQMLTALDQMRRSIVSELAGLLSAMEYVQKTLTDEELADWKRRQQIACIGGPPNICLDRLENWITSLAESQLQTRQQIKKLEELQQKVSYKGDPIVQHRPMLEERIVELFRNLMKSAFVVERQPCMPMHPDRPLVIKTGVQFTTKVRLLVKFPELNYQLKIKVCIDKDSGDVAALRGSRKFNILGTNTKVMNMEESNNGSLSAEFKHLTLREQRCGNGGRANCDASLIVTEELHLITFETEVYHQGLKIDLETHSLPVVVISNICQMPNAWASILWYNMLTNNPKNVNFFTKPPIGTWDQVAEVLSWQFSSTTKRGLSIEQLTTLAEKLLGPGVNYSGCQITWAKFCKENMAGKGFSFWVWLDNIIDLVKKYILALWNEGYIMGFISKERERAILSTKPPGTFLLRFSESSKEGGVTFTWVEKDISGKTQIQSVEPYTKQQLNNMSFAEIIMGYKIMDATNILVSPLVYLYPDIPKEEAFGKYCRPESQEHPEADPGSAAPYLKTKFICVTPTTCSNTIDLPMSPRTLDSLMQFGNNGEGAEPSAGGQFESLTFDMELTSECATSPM
UniProt P45973: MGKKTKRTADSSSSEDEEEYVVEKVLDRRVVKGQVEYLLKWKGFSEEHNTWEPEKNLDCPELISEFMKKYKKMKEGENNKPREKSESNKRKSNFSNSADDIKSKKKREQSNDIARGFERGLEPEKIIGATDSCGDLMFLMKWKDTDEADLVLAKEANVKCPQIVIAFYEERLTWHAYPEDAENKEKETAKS

Key:
[1] = molecular target: STAT3 (Signal Transducer and Activator of Transcription 3), endogenous (human (endogenous in A549)) (UniProt P40763); assay: FRET or BRET; fixed A549 cells immunostained with anti-HP1α-Alexa488 (donor) and anti-STAT3-Alexa546 (acceptor) primary and secondary antibody pairs; Leica confocal microscope with FRET software; untreated cells
[2] = molecular target: STAT3 (Signal Transducer and Activator of Transcription 3), endogenous (human (endogenous in A549)) (UniProt P40763); assay: co-IP; A549 cell lysates (200 μg protein; 50 mM Tris-HCl pH 8.0, 250 mM NaCl, 5 mM EDTA, 1 mM DTT, 5% glycerol) immunoprecipitated overnight at 4 °C with anti-STAT3 or anti-HP1α bound to protein G-agarose; Western blot of endogenous proteins

binding [1]: binds | binding [2]: binds
Substance: Heterochromatin Protein 1 alpha (HP1α), endogenous (from UniProt P45973 1-191)
